Reference: PubChem BioAssay AID652259 (Drosophila RNAi Screening Center, 2013)

- Screen: 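Genome-wide hunt for genes that control Wingless pathway activity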 (primary screen)
- Cells: Drosophila clone 8 imaginal disc epithelial cells
- Reagents: long dsRNA against Drosophila genes
- Challenge: pathway stimulated by co-transfected Wingless expression plasmid
- Measurement: 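Firefly luciferase from a tcf-site Wingless reporter, measured alongside co-transfected Renilla luciferase that tracks transfection; pathway stimulated by a Wingless plasmid; the firefly-to-Renilla ratio is not deposited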
- Reading the numbers: firefly reporter light: higher = more Wg reporter light, before normalisation; Renilla control light: higher = more transfected or surviving cells
- Call rule: 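a knock-down is a candidate when at least two out of four statistical tests show it departing from its plate mean; one test alone signals a weak candidate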
- Meaning of the calls: active = candidate regulator (raises or lowers reporter); inactive = not a candidate
The screen tested about 22,000 reagents; shown is an unselected part of those that have a named target and a result. Over the whole deposit, 233 (1.1%) were called active. 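Light values are raw, unnormalised plate reads; the ratio scores behind the reporter calls were not deposited.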 Reagents against one gene are numbered here. A plus sign joins genes that one reagent is predicted to hit. The record does not give: the amount of reagent, the time to read-out, the dose of the treatment.

gene knocked down | reagent no. | reporter change call, replicate 1 | firefly reporter light, replicate 1 | firefly reporter light, replicate 2 | Renilla control light, replicate 1 | Renilla control light, replicate 2 | call
wam (wampa) | 1 | – | 18717 | – | 11189 | – | inactive
simj (simjang) | 1 | – | 2364 | – | 1242 | – | inactive
TwdlS (TweedleS) | 1 | – | 5312 | – | 2324 | – | inactive
Syp (Syncrip) | 1 | – | 3569 | – | 1688 | – | inactive
Syp (Syncrip) | 2 | – | 3881 | 10539 | 1664 | 2646 | inactive
asRNA:CR30267 (antisense RNA:CR30267) | 1 | – | 6.41e5 | 6.24e5 | 3.18e5 | 2.18e5 | inactive
stl (stall) | 1 | – | 6092 | – | 2205 | – | inactive
CG14693 | 1 | – | 19728 | – | 5097 | – | inactive
koko + Vti1b | 1 | – | 3253 | 6096 | 1323 | 2342 | inactive
koko + Vti1b | 2 | – | 15106 | – | 2583 | – | inactive
CG31815 | 1 | – | 16321 | – | 7762 | – | inactive
Scr (Sex combs reduced) | 1 | – | 18421 | – | 2100 | – | inactive
Flad1 (Flavin adenine dinucleotide synthetase 1) | 1 | – | 2320 | 6422 | 737 | 2192 | inactive
CG42355 | 1 | – | 2272 | – | 1672 | – | inactive
CG32213 + CG12519 + 825-Oak + 1 more | 1 | – | 3600 | – | 1650 | – | inactive
Rgk1 (Rad, Gem/Kir family member 1) | 1 | – | 15040 | – | 11328 | – | inactive
Rgk1 (Rad, Gem/Kir family member 1) | 2 | – | 12485 | – | 12114 | – | inactive
Rgk1 (Rad, Gem/Kir family member 1) | 3 | – | 21947 | – | 15370 | – | inactive
Rgk1 (Rad, Gem/Kir family member 1) | 4 | – | 6098 | – | 1737 | – | inactive
Rgk1 (Rad, Gem/Kir family member 1) | 5 | Wg reporter activity raised | 4113 | – | 555 | – | inactive
CG13148 | 1 | – | 9145 | – | 2294 | – | inactive
CG32846 | 1 | – | 2432 | – | 1170 | – | inactive
wry (weary) | 1 | – | 2144 | 5148 | 668 | 1915 | inactive
wry (weary) | 2 | – | 3792 | 12186 | 1924 | 3846 | inactive
wry (weary) | 3 | – | 5.04e5 | 5.01e5 | 1.92e5 | 59873 | inactive
Paf-AHalpha (Platelet-activating factor acetylhydrolase alpha) | 1 | – | 17914 | – | 7940 | – | inactive
CG3081 | 1 | – | 15312 | – | 8052 | – | inactive
CG13458 | 1 | – | 5289 | – | 1946 | – | inactive
CG6870 | 1 | – | 2497 | 9505 | 1034 | 3850 | inactive
CG43901 | 1 | – | 17361 | – | 7484 | – | inactive
CG43901 | 2 | – | 23737 | – | 4929 | – | inactive
CG43901 | 3 | – | 23824 | – | 10749 | – | inactive
CG43901 | 4 | – | 4.97e5 | 5.09e5 | 2.08e5 | 2.37e5 | inactive
CG33469 | 1 | – | 5.33e5 | 5.47e5 | 2.25e5 | 1.41e5 | inactive
CG6602 | 1 | – | 1656 | 7848 | 1104 | 3480 | inactive
mtd (mustard) | 1 | – | 9808 | – | 3640 | – | inactive
mtd (mustard) | 2 | – | 8560 | – | 3153 | – | inactive
mtd (mustard) | 3 | – | 16771 | – | 5696 | – | inactive
Ugt35D1 (UDP-glycosyltransferase family 35 member D1) | 1 | – | 16010 | – | 8023 | – | inactive
Zwilch | 1 | – | 7635 | – | 2979 | – | inactive
CG32801 | 1 | – | 18781 | – | 13784 | – | inactive
CG5742 | 1 | – | 20563 | – | 5520 | – | inactive
CG15706 | 1 | – | 4264 | – | 1408 | – | inactive
TwdlZ (TweedleZ) | 1 | – | 5376 | – | 1696 | – | inactive
CG7990 | 1 | – | 4972 | – | 1769 | – | inactive
CG7990 | 2 | Wg reporter activity raised | 2870 | 7174 | 329 | 1073 | active
CG6431 | 1 | – | 3400 | 6710 | 1349 | 3697 | inactive
CG15594 | 1 | – | 10320 | – | 2083 | – | inactive
CG14086 | 1 | – | 17792 | – | 6912 | – | inactive
alphaCOP (Coat Protein (coatomer) alpha) | 1 | – | 13392 | – | 3318 | – | inactive
CG8149 | 1 | – | 10768 | – | 2733 | – | inactive
CG32198 | 1 | – | 3301 | – | 1132 | – | inactive
Scm (Sex comb on midleg) | 1 | – | 14080 | – | 3680 | – | inactive
CG33287 | 1 | – | 4.33e5 | 4.72e5 | 1.65e5 | 1.63e5 | inactive
CG13898 | 1 | – | 5940 | – | 2953 | – | inactive
cdm (cadmus) | 1 | – | 2176 | 4313 | 1511 | 1905 | inactive
CG11398 | 1 | – | 16632 | – | 9849 | – | inactive
sll (slalom) | 1 | – | 2544 | 6260 | 1008 | 1712 | inactive
CG18081 | 1 | – | 5664 | – | 2874 | – | inactive
Mco1 (Multicopper oxidase 1) | 1 | – | 4033 | 8391 | 1206 | 4269 | inactive
x16 (x16 splicing factor) | 1 | – | 19617 | – | 8018 | – | inactive
x16 (x16 splicing factor) | 2 | – | 14052 | – | 4949 | – | inactive
Tmem43 (Transmembrane protein 43) | 1 | – | 1041 | 2969 | 1322 | 1696 | inactive
CG5708 | 1 | – | 3459 | 8442 | 1044 | 3618 | inactive
SC35 (SR family splicing factor SC35) | 1 | – | 2618 | 5959 | 597 | 2304 | inactive
SC35 (SR family splicing factor SC35) | 2 | – | 2208 | 9861 | 1195 | 3864 | inactive
tHMG1 (testis-enriched HMG-box-containing protein 1) | 1 | – | 44680 | – | 9190 | – | inactive
Taf8 (TBP-associated factor 8) | 1 | Wg reporter activity raised | 31445 | – | 7995 | – | active
Cpr47Ee (Cuticular protein 47Ee) | 1 | Wg reporter activity raised | 3452 | – | 946 | – | inactive
CG17944 | 1 | – | 16548 | – | 4460 | – | inactive
RfC4 (Replication factor C subunit 4) | 1 | – | 8317 | – | 3174 | – | inactive
CG14937 | 1 | – | 2200 | 5782 | 1048 | 2788 | inactive
CG5554 | 1 | – | 3253 | 6745 | 632 | 1897 | inactive

Copied from the list.
Entry of sll (slalom) in “Renilla control light, replicate 1”: 1008
For “call”, SC35 (SR family splicing factor SC35) #1 reads inactive
For “Renilla control light, replicate 1”, CG5742 reads 5520
Under “Renilla control light, replicate 1”, simj (simjang) shows 1242
Value of mtd (mustard) #1 in “call”: inactive
For “Renilla control light, replicate 1”, wry (weary) #2 has 1924
